In publication PMC9008731 one finds binding data, which are given here for two molecules.

Protein sequences, listed by entry. Tags and fused reporters are not part of them.
UniProt Q7KZF4: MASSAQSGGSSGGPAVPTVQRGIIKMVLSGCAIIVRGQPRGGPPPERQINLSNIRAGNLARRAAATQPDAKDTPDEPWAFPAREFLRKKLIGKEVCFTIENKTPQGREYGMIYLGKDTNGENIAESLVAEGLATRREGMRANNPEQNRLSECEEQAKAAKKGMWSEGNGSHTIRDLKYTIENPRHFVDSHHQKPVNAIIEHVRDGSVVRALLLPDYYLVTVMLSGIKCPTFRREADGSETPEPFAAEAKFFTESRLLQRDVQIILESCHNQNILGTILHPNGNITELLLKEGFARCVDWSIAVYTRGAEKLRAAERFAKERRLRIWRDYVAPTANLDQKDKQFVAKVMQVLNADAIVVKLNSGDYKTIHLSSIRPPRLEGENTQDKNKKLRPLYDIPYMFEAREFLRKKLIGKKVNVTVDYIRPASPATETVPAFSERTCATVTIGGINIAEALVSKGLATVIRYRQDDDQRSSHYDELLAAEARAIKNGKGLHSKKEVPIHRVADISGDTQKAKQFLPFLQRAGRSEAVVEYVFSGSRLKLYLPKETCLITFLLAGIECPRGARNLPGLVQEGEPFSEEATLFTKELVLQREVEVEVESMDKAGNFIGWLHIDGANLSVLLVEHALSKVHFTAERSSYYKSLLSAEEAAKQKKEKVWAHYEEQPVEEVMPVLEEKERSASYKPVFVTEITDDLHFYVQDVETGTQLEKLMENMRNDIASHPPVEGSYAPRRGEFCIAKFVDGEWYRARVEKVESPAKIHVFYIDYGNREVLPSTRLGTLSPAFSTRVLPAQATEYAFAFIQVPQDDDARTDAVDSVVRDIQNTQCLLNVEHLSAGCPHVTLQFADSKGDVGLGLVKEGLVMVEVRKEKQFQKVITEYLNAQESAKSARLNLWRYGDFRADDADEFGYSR

The assay deals with Flag-SND1, full-length (WT) (UniProt Q7KZF4). The assay can be described thus: affinity purification with mass spectrometry; PLC cells overexpressing Flag-tagged SND1; anti-Flag IP from purified mitochondrial lysates, LC-MS; fold change > 1.5 against the EV control.

No constants are given. Whether binding was seen depends on the method and setting. Binding seen in cells or lysates may run through a third protein. A yes stands for co-enrichment or nearness to the bait. Other partners may have been found.

B1: GOT2, endogenous in PLC cells (protein, UniProt P00505 30-430)
chain: SSWWTHVEMGPPDPILGVTEAFKRDTNSKKMNLGVGAYRDDNGKPYVLPSVRKAEAQIAAKNLDKEYLPIGGLAEFCKASAELALGENSEVLKSGRFVTVQTISGTGALRIGASFLQRFFKFSRDVFLPKPTWGNHTPIFRDAGMQLQGYRYYDPKTCGFDFTGAVEDISKIPEQSVLLLHACAHNPTGVDPRPEQWKEIATVVKKRNLFAFFDMAYQGFASGDGDKDAWAVRHFIEQGINVCLCQSYAKNMGLYGERVGAFTMVCKDADEAKRVESQLKILIRPMYSNPPLNGARIAAAILNTPDLRKQWLQEVKVMADRIIGMRTQLVSNLKKEGSTHNWQHITDQIGMFCFTGLKPEQVERLIKEFSIYMTKDGRISVAGVTSSNVGYLAHAIHQVTK
As to B1, the binding entry is listed as “binds”.

B2: HACD3, endogenous in PLC cells (protein, UniProt Q9P035 1-362)
chain: MENQVLTPHVYWAQRHRELYLRVELSDVQNPAISITENVLHFKAQGHGAKGDNVYEFHLEFLDLVKPEPVYKLTQRQVNITVQKKVSQWWERLTKQEKRPLFLAPDFDRWLDESDAEMELRAKEEERLNKLRLESEGSPETLTNLRKGYLFMYNLVQFLGFSWIFVNLTVRFCILGKESFYDTFHTVADMMYFCQMLAVVETINAAIGVTTSPVLPSLIQLLGRNFILFIIFGTMEEMQNKAVVFFVFYLWSAIEIFRYSFYMLTCIDMDWKVLTWLRYTLWIPLYPLGCLAEAVSVIQSIPIFNETGRFSFTLPYPVKIKVRFSFFLQIYLIMIFLGLYINFRHLYKQRRRRYGQKKKKIH
Consider B2, for which the binding result is listed as “binds”.
